# Measurements reported in PubChem BioAssay AID254 (DTP/NCI, 2004).
# The list is a part of this screen's results and no random one: it is rich in T/C values a quarter to a half above the control, in often repeated tests (any T/C) and in doses without a T/C. Other doses and runs of a compound stand elsewhere. T/C is the treated group as % of the vehicle group. Some entries give survivors of the animals treated and no T/C: the source holds a T/C of zero for them, seemingly a mark for toxic or unscored doses. Survivors were counted at the toxicity check, usually on the fifth day, unless a day is given; later deaths do not show. Schedules are NCI's codes, taken here to give the interval after Q, in days (D) or hours (H), and the number of doses after X. Where survival is the endpoint, the PubChem record calls one and a half times the control and up active, and a quarter to a half above the control has no call in these data; cut-offs in other NCI protocols can differ. Some entries hold several experiments; the values are given in rising order. Some schedule codes hold Z or #, which are not explained here.
# Tested on: L1210 leukemia iv in BDF1 mice, survival T/C
# Experiment: NCI In Vivo Anticancer Drug Screen. Data for tumor model L1210 Leukemia (intravenous) in B6D2F1 (BDF1) mice
# Settings: higher T/C = longer survival; for survivor count: schedule: Q04DX003 (iv), vehicle: saline with Tween-80
# Experimental: The antitumor activity of compounds was measured in mice bearing transplantable tumors. Survival or tumor size were measured and the results are expressed as the measurement made in the treated group (T) divided by the measurement made in the vehicle treated control group (C). The tumor model used in this assay is L1210 Leukemia (intravenous) in B6D2F1 (BDF1) mice
# [1] = T/C endpoint: mean survival time, dose: 15.0 mg/kg/injection, schedule: Q01DX001 (ip), vehicle: other
# [2] = T/C endpoint: mean survival time, dose: 20.0 mg/kg/injection, schedule: Q01DX001 (ip), vehicle: other, evaluated on day 45
# [3] = T/C endpoint: mean survival time, dose: 20.0 mg/kg/injection, schedule: Q01DX001 (ip), vehicle: other, evaluated on day 60
# [4] = T/C endpoint: mean survival time, dose: 60.0 mg/kg/injection, schedule: Q01DX001 (ip), vehicle: other, evaluated on day 45
# [5] = T/C endpoint: mean survival time, dose: 60.0 mg/kg/injection, schedule: Q01DX001 (ip), vehicle: other, evaluated on day 60
smiles,measurement,setting,value
O=NN(CCCl)C(=O)N[C@H]1CCCC[C@@H]1Cl,T/C,"T/C endpoint: mean survival time, dose: 10.0 mg/kg/injection, schedule: Q01DX001 (ip), vehicle: other",130 and 143 % of control
same,T/C,"T/C endpoint: mean survival time, dose: 10.0 mg/kg/injection, schedule: Q04DX004 (ip), vehicle: other",131 % of control
same,T/C,[1],147 % of control
same,T/C,[2],"161, 179, 192, 193, 195 % of control"
same,T/C,[3],284 % of control
same,T/C,[4],"562, 623, 668 % of control"
same,T/C,[5],221 and 871 % of control
CCCCc1ccc2nc(NC(=O)OC)[nH]c2c1,survivor count,"T/C endpoint: median survival time, dose: 75.0 mg/kg/injection",1 of 7
same,survivor count,"T/C endpoint: median survival time, dose: 100.0 mg/kg/injection",0 of 7
same,survivor count,"T/C endpoint: median survival time, dose: 150.0 mg/kg/injection",0 of 7
O=NN(CCCl)C(=O)NCCCl,T/C,"T/C endpoint: mean survival time, dose: 3.7 mg/kg/injection, schedule: Q01DX001 (ip), vehicle: other",128 and 145 % of control
same,T/C,[1],"194, 207, 223, 247, 265 % of control"
same,T/C,[2],"221, 239, 310 % of control"
same,T/C,[3],287 and 331 % of control
same,T/C,"T/C endpoint: mean survival time, dose: 20.0 mg/kg/injection, schedule: Q01DX001 (ip), vehicle: saline + alcohol, evaluated on day 3","279, 288, 299, 307, 414 % of control"
same,T/C,"T/C endpoint: mean survival time, dose: 20.0 mg/kg/injection, schedule: Q01DX001 (ip), vehicle: saline + alcohol, evaluated on day 60",288 and 307 % of control
same,T/C,"T/C endpoint: mean survival time, dose: 30.0 mg/kg/injection, schedule: Q01DX001 (ip), vehicle: saline + alcohol, evaluated on day 3","323, 334, 422, 429, 445 % of control"
same,T/C,"T/C endpoint: mean survival time, dose: 30.0 mg/kg/injection, schedule: Q01DX001 (ip), vehicle: saline + alcohol, evaluated on day 60",323 and 422 % of control
same,T/C,"T/C endpoint: mean survival time, dose: 40.0 mg/kg/injection, schedule: Q01DX001 (ip), vehicle: other, evaluated on day 45","339, 443, 564 % of control"
same,T/C,"T/C endpoint: mean survival time, dose: 40.0 mg/kg/injection, schedule: Q01DX001 (ip), vehicle: other, evaluated on day 60",390 and 460 % of control
same,T/C,"T/C endpoint: mean survival time, dose: 40.0 mg/kg/injection, schedule: Q01DX001 (ip), vehicle: saline + alcohol, evaluated on day 3","330, 368, 395, 404, 427, 459 % of control"
same,T/C,"T/C endpoint: mean survival time, dose: 40.0 mg/kg/injection, schedule: Q01DX001 (ip), vehicle: saline + alcohol, evaluated on day 60",330 and 405 % of control
same,T/C,"T/C endpoint: mean survival time, dose: 50.0 mg/kg/injection, schedule: Q01DX001 (ip), vehicle: saline + alcohol, evaluated on day 3","361, 382, 478 % of control"
same,T/C,"T/C endpoint: mean survival time, dose: 50.0 mg/kg/injection, schedule: Q01DX001 (ip), vehicle: saline + alcohol, evaluated on day 60",361 and 382 % of control
same,T/C,[4],"232, 267, 308 % of control"
same,T/C,[5],687 % of control
same,T/C,"T/C endpoint: median survival time, dose: 60.0 mg/kg/injection, schedule: Q## X001 (ip), vehicle: saline + alcohol",149 % of control
O=c1[nH]cc(F)c(=O)[nH]1,T/C,"T/C endpoint: mean survival time, dose: 30.0 mg/kg/injection, schedule: Q01DX005 (ip), vehicle: saline, evaluated on day 5",134 % of control
same,T/C,"T/C endpoint: mean survival time, dose: 30.0 mg/kg/injection, schedule: Q01DX005 (ip), vehicle: saline, evaluated on day 45",134 % of control
